Numbering of substitutions follows the chain as printed. Names may count otherwise. Results are given in words; binding and its absence hold for the method and conditions named. For part of these data: Binding seen in cells or lysates may run through a third protein. For part of these data: Binding calls can cover weak binding; strength is not graded here. Sequences can lack the tags named with a protein.

For assay [1], the target named is T1, GST-KRP3 (rice (Oryza sativa)) (UniProt Q2R185).
T1 sequence: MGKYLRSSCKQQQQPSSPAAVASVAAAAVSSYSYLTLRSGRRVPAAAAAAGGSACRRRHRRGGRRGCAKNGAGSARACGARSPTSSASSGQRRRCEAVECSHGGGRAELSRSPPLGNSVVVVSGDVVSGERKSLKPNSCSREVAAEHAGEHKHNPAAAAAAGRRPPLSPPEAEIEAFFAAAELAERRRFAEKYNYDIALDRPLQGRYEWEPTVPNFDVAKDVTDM
As to the kind of experiment: pull-down.

The target in assay [2] is T2, KRP3 fused to the GAL4 DNA binding domain (rice (Oryza sativa)) (UniProt Q2R185).
T2 sequence: T1 sequence
As to the kind of experiment: two-hybrid.

The target of assay [3] is CycD2 fused to a YFP fragment (pSITE-cEYFP-N1) (rice (Oryza sativa)). As to the kind of experiment: split reporter.

Consider 6xHis-MPK4 (rice) (enzyme), for which the binding result in assay [1] is recorded as “no binding”. On the same count and under the same terms, the result for 6xHis-MPK6 (rice) (enzyme) reads “no binding”. For “MPK4 fused to the GAL4 activation domain (rice) (enzyme)”, in assay [2], the binding entry is on record as “no binding”. The same measure, in the same setting: the result for “MPK6 fused to the GAL4 activation domain (rice) (enzyme)” reads “no binding”.

B1: KRP3^EE (KRP3^S17E,S82E, phospho-mimetic) fused to a YFP fragment (protein, UniProt Q2R185 1-225)
chain: T1 sequence with S17E, S82E
Regarding B1, the binding entry in assay [3] is listed as “binds”.

B2: KRP3^AA (KRP3^S17A,S82A, phospho-dead) fused to a YFP fragment (protein, UniProt Q2R185 1-225)
chain: T1 sequence with S17A, S82A
For B2, the binding entry in assay [3] is recorded as “binds”.

Values taken from doi:10.1101/2024.04.18.590116 (bioRxiv, 2024).
